The supplement of paper PMC12823440, “Inhibitors supercharge kinase turnover through native proteolytic circuits” (Nature, 2025)
Structures can show the parent of a compound that is named as a salt. Some of the results follow. The calls rarely recur for the same compound in another form.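 Kinases, fused to nanoluciferase, were expressed in K562 cells; luminescence was measured every 4 h from 2 to 18 h as percent of control (DMSO = 100%, positive control = 0%). A time point is decreased if signal falls significantly (2 sigma). Hits were called by the authors by a rule that is not shown; the count of time points alone does not decide it.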

The chains behind the UniProt entries cited, without tags or fusion partners.
UniProt P29317, whole entry: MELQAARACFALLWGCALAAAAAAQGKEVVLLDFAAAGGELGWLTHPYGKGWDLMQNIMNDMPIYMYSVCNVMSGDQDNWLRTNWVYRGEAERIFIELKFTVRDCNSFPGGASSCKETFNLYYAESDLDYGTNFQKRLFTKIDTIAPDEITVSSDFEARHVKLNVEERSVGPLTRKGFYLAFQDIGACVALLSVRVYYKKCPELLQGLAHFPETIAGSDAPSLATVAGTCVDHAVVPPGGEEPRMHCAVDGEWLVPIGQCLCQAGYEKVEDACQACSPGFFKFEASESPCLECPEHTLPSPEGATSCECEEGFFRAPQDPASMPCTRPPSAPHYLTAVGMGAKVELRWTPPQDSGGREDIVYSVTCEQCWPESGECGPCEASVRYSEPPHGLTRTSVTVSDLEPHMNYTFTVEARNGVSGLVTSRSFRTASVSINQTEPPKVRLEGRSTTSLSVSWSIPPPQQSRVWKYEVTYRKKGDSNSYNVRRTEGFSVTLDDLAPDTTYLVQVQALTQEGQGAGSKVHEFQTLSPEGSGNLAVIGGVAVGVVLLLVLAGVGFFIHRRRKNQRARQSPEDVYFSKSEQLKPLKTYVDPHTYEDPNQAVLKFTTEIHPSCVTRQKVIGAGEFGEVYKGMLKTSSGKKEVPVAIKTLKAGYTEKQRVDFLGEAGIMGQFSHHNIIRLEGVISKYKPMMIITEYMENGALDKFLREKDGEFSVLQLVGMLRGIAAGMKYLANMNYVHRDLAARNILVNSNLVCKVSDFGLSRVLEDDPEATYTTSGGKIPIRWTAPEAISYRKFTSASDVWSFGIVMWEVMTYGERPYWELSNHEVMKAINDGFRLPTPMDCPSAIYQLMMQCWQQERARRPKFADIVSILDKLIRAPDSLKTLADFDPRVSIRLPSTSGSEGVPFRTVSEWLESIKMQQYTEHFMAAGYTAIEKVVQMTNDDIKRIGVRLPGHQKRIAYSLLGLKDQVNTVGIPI
UniProt P21860, whole entry: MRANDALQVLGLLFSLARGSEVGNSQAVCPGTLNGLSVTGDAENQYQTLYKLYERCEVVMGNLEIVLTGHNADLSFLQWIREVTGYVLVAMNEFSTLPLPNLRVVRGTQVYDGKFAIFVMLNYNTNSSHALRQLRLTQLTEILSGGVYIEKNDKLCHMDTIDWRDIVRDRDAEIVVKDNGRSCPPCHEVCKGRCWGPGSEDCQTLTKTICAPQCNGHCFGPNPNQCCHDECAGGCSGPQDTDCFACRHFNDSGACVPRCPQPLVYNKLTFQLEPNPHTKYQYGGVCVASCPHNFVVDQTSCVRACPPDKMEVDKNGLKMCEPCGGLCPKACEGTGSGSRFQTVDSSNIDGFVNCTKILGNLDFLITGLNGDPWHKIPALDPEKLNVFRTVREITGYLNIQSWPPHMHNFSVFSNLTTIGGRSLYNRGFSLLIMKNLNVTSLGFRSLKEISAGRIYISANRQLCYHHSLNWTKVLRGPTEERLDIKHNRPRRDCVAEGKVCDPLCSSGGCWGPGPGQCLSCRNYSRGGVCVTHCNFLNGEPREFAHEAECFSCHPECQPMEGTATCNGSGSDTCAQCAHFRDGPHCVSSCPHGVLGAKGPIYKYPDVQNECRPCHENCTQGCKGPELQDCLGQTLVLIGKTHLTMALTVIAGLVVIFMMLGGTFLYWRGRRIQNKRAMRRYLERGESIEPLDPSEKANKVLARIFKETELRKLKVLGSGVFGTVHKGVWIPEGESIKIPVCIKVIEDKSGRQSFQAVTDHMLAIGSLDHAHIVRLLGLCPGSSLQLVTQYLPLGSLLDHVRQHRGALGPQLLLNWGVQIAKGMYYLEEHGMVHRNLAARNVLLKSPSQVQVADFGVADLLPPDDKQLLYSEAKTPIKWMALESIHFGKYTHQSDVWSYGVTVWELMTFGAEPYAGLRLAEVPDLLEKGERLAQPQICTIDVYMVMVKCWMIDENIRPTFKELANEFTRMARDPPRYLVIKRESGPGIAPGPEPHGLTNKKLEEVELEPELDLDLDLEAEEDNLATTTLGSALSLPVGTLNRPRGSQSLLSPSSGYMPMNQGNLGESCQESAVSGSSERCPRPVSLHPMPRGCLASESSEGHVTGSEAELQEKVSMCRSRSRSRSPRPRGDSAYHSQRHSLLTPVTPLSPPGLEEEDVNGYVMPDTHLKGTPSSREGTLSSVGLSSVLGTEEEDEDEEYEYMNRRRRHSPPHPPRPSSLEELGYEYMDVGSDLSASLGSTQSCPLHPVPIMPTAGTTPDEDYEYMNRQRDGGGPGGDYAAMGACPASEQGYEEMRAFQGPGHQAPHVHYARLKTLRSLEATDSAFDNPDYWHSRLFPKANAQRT
UniProt Q15303, whole entry R711C: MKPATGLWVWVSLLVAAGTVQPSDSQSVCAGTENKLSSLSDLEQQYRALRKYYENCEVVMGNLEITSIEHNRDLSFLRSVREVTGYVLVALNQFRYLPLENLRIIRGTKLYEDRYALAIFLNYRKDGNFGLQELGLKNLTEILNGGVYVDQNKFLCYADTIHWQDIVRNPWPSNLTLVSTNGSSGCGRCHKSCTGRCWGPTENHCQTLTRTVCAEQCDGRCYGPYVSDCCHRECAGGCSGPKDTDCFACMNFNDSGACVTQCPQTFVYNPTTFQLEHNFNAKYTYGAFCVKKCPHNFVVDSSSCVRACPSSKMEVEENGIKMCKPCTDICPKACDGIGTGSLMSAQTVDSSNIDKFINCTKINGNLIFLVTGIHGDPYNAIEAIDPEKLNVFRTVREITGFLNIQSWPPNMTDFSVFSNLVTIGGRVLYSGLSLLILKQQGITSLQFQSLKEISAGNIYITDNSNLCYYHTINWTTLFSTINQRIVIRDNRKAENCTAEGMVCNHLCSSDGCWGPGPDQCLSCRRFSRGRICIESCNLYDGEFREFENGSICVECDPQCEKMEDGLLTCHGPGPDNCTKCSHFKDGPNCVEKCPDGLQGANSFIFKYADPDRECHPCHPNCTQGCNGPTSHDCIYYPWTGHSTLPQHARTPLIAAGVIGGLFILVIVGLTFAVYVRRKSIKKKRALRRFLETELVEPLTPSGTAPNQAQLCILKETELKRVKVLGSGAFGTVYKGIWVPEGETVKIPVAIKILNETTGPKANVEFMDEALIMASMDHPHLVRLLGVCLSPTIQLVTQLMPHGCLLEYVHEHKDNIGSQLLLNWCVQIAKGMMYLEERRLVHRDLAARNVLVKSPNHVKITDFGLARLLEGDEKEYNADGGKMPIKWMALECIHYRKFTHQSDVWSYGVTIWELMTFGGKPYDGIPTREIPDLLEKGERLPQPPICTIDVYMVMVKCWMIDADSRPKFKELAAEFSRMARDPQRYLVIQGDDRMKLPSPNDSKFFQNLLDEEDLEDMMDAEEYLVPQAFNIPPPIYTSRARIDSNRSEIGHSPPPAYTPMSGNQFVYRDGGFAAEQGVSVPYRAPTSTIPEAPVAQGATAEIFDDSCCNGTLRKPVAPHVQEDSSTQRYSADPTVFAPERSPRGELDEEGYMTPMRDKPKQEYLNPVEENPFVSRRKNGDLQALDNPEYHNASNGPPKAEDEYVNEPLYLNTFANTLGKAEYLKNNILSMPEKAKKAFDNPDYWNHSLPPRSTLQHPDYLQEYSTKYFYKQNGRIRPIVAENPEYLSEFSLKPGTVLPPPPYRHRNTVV
UniProt P11362, whole entry, looked up: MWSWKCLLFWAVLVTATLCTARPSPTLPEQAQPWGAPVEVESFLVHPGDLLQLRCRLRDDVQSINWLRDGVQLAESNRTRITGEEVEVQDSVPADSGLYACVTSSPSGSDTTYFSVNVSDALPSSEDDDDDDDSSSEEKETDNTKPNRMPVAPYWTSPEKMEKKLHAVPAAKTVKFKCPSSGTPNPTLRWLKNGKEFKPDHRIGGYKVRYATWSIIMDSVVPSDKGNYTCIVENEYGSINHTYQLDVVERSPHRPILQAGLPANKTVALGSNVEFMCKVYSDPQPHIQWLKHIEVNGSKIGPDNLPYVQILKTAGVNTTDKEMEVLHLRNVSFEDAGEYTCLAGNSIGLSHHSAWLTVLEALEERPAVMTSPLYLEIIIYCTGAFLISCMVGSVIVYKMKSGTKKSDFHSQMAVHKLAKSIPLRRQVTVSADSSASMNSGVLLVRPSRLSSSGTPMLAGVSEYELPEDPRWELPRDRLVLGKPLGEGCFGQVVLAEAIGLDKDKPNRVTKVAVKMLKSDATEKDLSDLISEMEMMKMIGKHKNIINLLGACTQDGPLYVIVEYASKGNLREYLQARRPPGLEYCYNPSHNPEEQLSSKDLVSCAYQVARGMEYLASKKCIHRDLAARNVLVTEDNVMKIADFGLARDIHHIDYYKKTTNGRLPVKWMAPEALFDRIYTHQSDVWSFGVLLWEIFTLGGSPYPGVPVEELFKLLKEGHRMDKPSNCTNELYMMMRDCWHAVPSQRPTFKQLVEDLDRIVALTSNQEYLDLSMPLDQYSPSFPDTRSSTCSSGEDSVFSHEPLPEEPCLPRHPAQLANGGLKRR
UniProt P21802, whole entry, looked up: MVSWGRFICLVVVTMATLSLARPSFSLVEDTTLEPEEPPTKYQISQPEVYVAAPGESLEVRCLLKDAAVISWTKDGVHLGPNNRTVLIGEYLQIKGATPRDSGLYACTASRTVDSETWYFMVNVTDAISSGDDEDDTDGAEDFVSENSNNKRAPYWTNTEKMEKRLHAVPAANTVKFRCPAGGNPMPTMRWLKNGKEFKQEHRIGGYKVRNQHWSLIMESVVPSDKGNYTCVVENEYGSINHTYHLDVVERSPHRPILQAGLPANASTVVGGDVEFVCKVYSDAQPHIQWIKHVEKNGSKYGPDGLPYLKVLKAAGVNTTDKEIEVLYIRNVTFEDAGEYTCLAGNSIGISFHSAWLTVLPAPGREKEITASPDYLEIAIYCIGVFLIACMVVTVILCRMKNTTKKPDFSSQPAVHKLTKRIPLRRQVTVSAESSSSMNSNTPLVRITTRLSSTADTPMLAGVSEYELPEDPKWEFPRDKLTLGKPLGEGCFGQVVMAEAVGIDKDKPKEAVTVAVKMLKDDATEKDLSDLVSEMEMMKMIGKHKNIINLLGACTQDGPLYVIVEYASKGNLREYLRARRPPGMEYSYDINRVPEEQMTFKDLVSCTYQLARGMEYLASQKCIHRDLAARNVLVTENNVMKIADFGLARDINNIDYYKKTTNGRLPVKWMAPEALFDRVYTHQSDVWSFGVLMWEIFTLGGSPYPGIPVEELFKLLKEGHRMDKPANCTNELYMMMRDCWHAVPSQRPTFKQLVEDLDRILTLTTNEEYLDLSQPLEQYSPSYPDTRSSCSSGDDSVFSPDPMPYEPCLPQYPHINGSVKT
UniProt P22607, whole entry, looked up: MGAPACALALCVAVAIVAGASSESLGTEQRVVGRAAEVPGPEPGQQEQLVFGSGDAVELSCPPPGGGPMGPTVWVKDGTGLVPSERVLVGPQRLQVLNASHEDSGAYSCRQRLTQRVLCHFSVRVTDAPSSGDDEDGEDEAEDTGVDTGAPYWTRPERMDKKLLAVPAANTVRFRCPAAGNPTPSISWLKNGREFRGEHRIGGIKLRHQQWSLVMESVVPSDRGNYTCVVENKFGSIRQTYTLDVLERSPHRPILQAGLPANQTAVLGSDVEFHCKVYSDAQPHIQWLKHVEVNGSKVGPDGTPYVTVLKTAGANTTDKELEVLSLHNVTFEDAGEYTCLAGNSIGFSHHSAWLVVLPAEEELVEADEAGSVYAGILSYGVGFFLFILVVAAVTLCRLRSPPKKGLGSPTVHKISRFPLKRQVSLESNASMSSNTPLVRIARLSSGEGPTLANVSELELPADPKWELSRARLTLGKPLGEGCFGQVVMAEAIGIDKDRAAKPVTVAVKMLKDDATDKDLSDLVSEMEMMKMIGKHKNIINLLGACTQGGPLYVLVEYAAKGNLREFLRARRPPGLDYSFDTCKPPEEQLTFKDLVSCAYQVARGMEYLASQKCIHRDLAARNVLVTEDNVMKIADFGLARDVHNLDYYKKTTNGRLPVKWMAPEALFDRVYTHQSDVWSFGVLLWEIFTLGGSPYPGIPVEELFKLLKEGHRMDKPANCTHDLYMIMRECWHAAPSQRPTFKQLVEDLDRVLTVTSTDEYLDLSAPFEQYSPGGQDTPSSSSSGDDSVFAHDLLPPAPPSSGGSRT

Key:
Assay in all cases: number of time points (of 5) at which kinase-Nluc abundance scored as decreased, DMSO-normalised (count); higher = more persistent destabilization
Details in all cases: K562; 2-18 h
[1] = target: EGFR_L861Q (UniProt P00533)
[2] = target: EGFR_T790M (UniProt P00533)
[3] = target: EPHA2 (UniProt P29317)
[4] = target: ERBB3 (UniProt P21860)
[5] = target: ERBB4_R711C (clone: ERBB4_mut) (UniProt Q15303)
[6] = target: ERN1 (UniProt O75460)
[7] = target: FGFR1 (UniProt P11362)
[8] = target: FGFR2 (UniProt P21802)
[9] = target: FGFR3 (UniProt P22607)
[10] = target: FGR (UniProt P09769)

Measured: number of time points

CCOc1cc(C(=O)N2CCC(N3CCN(C)CC3)CC2)ccc1Nc1ncc2c(n1)N(C1CCCC1)c1ccccc1C(=O)N2C (10 µM)
0: all assays above

Cc1c(CN2CCN(S(C)(=O)=O)CC2)sc2c(N3CCOCC3)nc(-c3cnc(N)nc3)nc12 (2.5 µM)
0: all assays above

Cc1cc2cc(Nc3ccnc(Nc4ccc5[nH]c(C)cc5c4)n3)ccc2[nH]1 (2.5 µM)
0: all assays above

C[C@@H](c1ccc2nccn2c1)n1nnc2ncc(-c3cnn(C)c3)nc21 [Savolitinib] (10 µM)
0: all assays above

c1cn2cc(-c3ccc4cn[nH]c4c3)nc(Nc3ccc(N4CCOCC4)cc3)c2n1 [Entospletinib] (10 µM)
0: all assays above

O=C(NCCCNC(=O)Nc1cccc(C2=NCCN2)c1)Nc1cccc(C2=NCCN2)c1 [p32 Inhibitor M36] (10 µM)
0: all assays above

CC(C)(C)NC(=O)c1cncn1C1CCN(c2ccc(-c3nnc(C(F)(F)F)o3)cn2)CC1 (10 µM)
0: all assays above

CCn1c(=O)c(-c2ccc(-c3cncs3)cc2Cl)cc2cnc(Nc3ccc(N4CCN(C)CC4)cc3)nc21 (2.5 µM)
0: all assays above

Taken from the entries so far (2 entries):
CCOc1cc(C(=O)N2CCC(N3CCN(C)CC3)CC2)ccc1Nc1ncc2c(n1)N(C1CCCC1)c1ccccc1C(=O)N2C (10 µM)
0: all assays above

Cc1c(CN2CCN(S(C)(=O)=O)CC2)sc2c(N3CCOCC3)nc(-c3cnc(N)nc3)nc12 (2.5 µM)
0: all assays above

Further records:

Cn1cnc(-c2cc3nccc(Oc4ccc(NC(=S)NC(=O)Cc5ccccc5)cc4F)c3s2)c1 [MGCD-265 analog] (10 µM)
3: [5] | [7]
4: [4]
0: all other assays above

O=C(O)c1cc(O)ccc1O [2,5-Dihydroxybenzoic acid] (10 µM)
0: all assays above

Cc1cc(Nc2cc(Cl)nc(Oc3ccc([N+](=O)[O-])cc3)n2)n[nH]1 [Autophinib] (2.5 µM)
0: all assays above

C=CC(=O)Nc1ccc(CN(C(=O)Nc2c(Cl)c(OC)cc(OC)c2Cl)c2cc(Nc3ccc(N4CCN(C)CC4)cc3)ncn2)cc1 (10 µM)
0: all assays above

CCN(CC)c1ccc2cc(C(=O)N3CCN(C(=O)C4=Cc5c(Br)cccc5S4(=O)=O)CC3)c(=O)oc2c1 (2 µM)
0: all assays above

N#Cc1ccc2ncnc(NC3CCC(N4CCOCC4)CC3)c2c1 (stereo not given) (10 µM)
0: all assays above

CC(C)(C)c1ccc(S(=O)(=O)Nc2ccc(-n3ccnc3)cc2)cc1 (10 µM)
0: all assays above

Cc1ccc(-c2c(C(=O)CF)n(CCCO)c3ncnc(N)c23)cc1 (10 µM)
0: all assays above

CC(C)NC(=O)N1CC[C@H](NC2=Nc3cc(F)ccc3N(CC(F)F)c3ccc(Cl)cc32)C1 (10 µM)
0: all assays above

COc1cc2ncn(-c3cc(OCc4ccccc4S(C)(=O)=O)c(C#N)s3)c2cc1OC (10 µM)
0: all assays above

COc1ccc(Cl)cc1NC(=O)Nc1cc(C)nc2ccccc12 (2.5 µM)
0: all assays above

O=C1NC(=O)C(=Cc2ccc(-c3ccc(F)cc3)o2)S1 (stereo in doubt) (10 µM)
0: all assays above

COc1ccc(Cn2cc(C(=O)N=Nc3c(O)[nH]c4c(C)cccc34)nn2)cc1 [MARK4 inhibitor 1] (10 µM)
0: all assays above

CC[C@@]1(c2ccccc2)C2=C(CC(C)(C)CC2=O)Nc2[nH]ncc21 (10 µM)
0: all assays above

CC(C)=CC(=O)CCC(=O)N1CCN(Cc2cc3nc(-c4cccc5[nH]ncc45)nc(N4CCOCC4)c3s2)CC1 (10 µM)
0: all assays above

C=CC(=O)Nc1cccc(C)c1Nc1ncc2cc(-c3c(Cl)c(OC)cc(OC)c3Cl)ccc2n1 (2.5 µM)
0: all assays above

C[C@@H]1O[C@@H](O[C@H]2[C@H](Oc3cc(O)c4c(=O)cc(-c5ccc(O)cc5)oc4c3)O[C@H](CO)[C@@H](O)[C@@H]2O)[C@H](O)[C@H](O)[C@H]1O [Rhoifolin] (10 µM)
0: all assays above

CC(c1ccc(-c2cnc3c(-c4ccc(S(N)(=O)=O)c5ccccc45)cnn3c2)cc1)N1CCCC1 (stereo not given) (2.5 µM)
0: all assays above

COc1cc(F)c(F)c(Nc2ccc(I)cc2F)c1NS(=O)(=O)C1(C[C@H](O)CO)CC1 [Refametinib] (10 µM)
3: [4]
1: [5]
2: [1] | [8]
0: all other assays above

NCCN1CCN(C/C=C/C(=O)N2CCC[C@@H](n3nc(-c4ccc(Oc5ccccc5)cc4)c4c(N)ncnc43)C2)CC1 [Ibrutinib-MPEA] (10 µM)
0: all assays above

CCN1CCN(Cc2ccc(Nc3ncc(F)c(-c4cc(F)c5nc(CO)n(C(C)C)c5c4)n3)nc2)CC1 [Abemaciclib metabolite M20] (2 µM)
0: all assays above

O=C1Nc2nc(-c3c(O)cccc3OCC3CC3)cc([C@@H]3CCCNC3)c2CO1 [Bay 65-1942 (hydrochloride)] (10 µM)
2: [1] | [6]
0: all other assays above

Nc1ncc(-c2cccc(N3CCNCC3)c2)cc1C(=O)Nc1ccncc1 [PKC-iota inhibitor 1] (10 µM)
0: all assays above

O=C(NCCO)c1ccc2c(c1)nc(Nc1cccc(Cl)c1)c1ccncc12 [CK2 inhibitor 2] (10 µM)
0: all assays above

COc1ccc(-c2ccc3c(N4CCOC[C@@H]4C)nc(N4CCOC[C@@H]4C)nc3n2)cc1CO (2.5 µM)
0: [2] | [10]
1: [3]
2: [6]
3: [1] | [4]
4: all other assays above

COc1cc(N2CCC(N3CCN(C)CC3)CC2)ccc1Nc1ncc(Cl)c(Nc2ccccc2P(C)(C)=O)n1 [Brigatinib] (2 µM)
2: [5]
0: all other assays above

Cc1cc(NC(=O)c2cccc(NC(=O)/C=C/CN(C)C)c2)ccc1Nc1nccc(-c2cccnc2)n1 (10 µM)
1: [5]
0: all other assays above

O=C(Nc1ccc2[nH]nc(-c3ccncc3)c2c1)[C@@H]1CCN(CC(=O)N2CCN(c3ccc(-c4ncccn4)cc3)CC2)C1 (2.5 µM)
0: all assays above

CC1CCc2nc(N)c(C#N)c(-c3cccnc3)c2C1 (stereo not given) (10 µM)
0: all assays above

Nc1cc(Nc2ccc(S(N)(=O)=O)cc2)ncn1 (10 µM)
0: all assays above

Nc1ncnc2c1ncn2[C@@H]1O[C@H](CO)C[C@H]1O [Cordycepin] (10 µM)
0: all assays above

COc1ncc(-c2nc(N3CCOCC3)nc3c(CN4CCC(C(C)(C)O)CC4)cc(F)cc23)cc1NS(C)(=O)=O [Linperlisib] (10 µM)
0: all assays above

Nc1nccc(Oc2ccc(NC(=O)c3cn(COP(=O)(O)O)cc(-c4ccc(F)cc4)c3=O)cc2F)c1Cl (10 µM)
1: [5]
0: all other assays above

CNCc1ccccc1-c1csc([C@@H](C)Nc2nc(C)nc3cc(OC)c(OC)cc23)c1 (2.5 µM)
1: [4] | [8]
0: all other assays above

C=C(CCC=C(C)C)[C@H]1CC[C@]2(C)[C@@H]1[C@H](O)C[C@@H]1[C@@]3(C)CC[C@H](O[C@@H]4O[C@H](CO)[C@@H](O)[C@H](O)[C@H]4O[C@@H]4O[C@H](CO)[C@@H](O)[C@H](O)[C@H]4O)C(C)(C)[C@@H]3CC[C@]12C [Ginsenoside Rk1] (10 µM)
0: all assays above

Cc1cc(Nc2cc3ncccc3c(N[C@@H]3C[C@H]4CC[C@@H](C3)N4CCC#N)n2)n[nH]1 [Izencitinib] (10 µM)
0: all assays above

O=C(/C=C/c1ccc(O)c(O)c1)OC1CC(OC(=O)/C=C/c2ccc(O)c(O)c2)(C(=O)O)CC(O)C1O (stereo not given) [1,3-Dicaffeoylquinic acid] (10 µM)
0: all assays above

COC1(C(=O)N2Cc3nc(Cl)nc(N[C@H](C)c4cc(N)cc(C(F)(F)F)c4)c3C2)CCOCC1 (10 µM)
0: all assays above
